Data from patent publication US20200392228A1.

Key:
[1] = target: Cyno MAdCAM protein (cyno); test: Octet
[2] = target: Cyno MAdCAM protein (cyno); test: ELISA
[3] = target: Cyno MAdCAM protein (cyno); test: binding to different species of MAdCAM, scFv format

binding [1] | binding [2] | binding [3] | Binder
binds | binds | – | MAdCAM antibody Clone ID 75 of Table 7 (IgG) (antibody, V domains shown) VH: EVQLLESGGGLVQPGGSLRLSCAASGFTFSDFWMHWVRQAPGKGLEWISYISGDSGYTNYADSVKGRFTISRDNSKNTLYLQMNSLRAEDTAVYYCARDRPYYYYMDVWGKGTTVTVSS VL: DIQMTQSPSSLSASVGDRVTITCRASQSVSRSLAWYQQKPGKAPKLLIYAASSLQSGVPSRFSGSGSGTDFTLTISSLQPEDFATYYCQQYKSYPVTFGQGTKVEIK
binds | – | binds | MAdCAM antibody Clone ID 6 of Table 6 (scFv) (scFv) scFv: EVQLLESGGGLVQPGGSLRLSCAASGFTFNNYAFHWVRQAPGKGLEWVSRINSYGTSTTYADSVKGRFTISRDNSKNTLYLQMNSLRAEDTAVYYCAREGPVAGYWYFDLWGQGTLVTVSSGGGGSGGGGSGGGGSGGGGSDIQMTQSPSSLSASVGDRVTITCRASQIIGTNLAWYQQKPGKAPKLLIYGASSLQSGVPSRFSGSGSGTDFTLTISSLQPEDFATYYCQQSYRLPFTFGQGTKVEIK
binds | binds | – | MAdCAM antibody Clone ID 6 of Table 7 (IgG) (antibody, V domains shown) VH: EVQLLESGGGLVQPGGSLRLSCAASGFTFNNYAFHWVRQAPGKGLEWVSRINSYGTSTTYADSVKGRFTISRDNSKNTLYLQMNSLRAEDTAVYYCAREGPVAGYWYFDLWGQGTLVTVSS VL: DIQMTQSPSSLSASVGDRVTITCRASQIIGTNLAWYQQKPGKAPKLLIYGASSLQSGVPSRFSGSGSGTDFTLTISSLQPEDFATYYCQQSYRLPFTFGQGTKVEIK
no binding | – | – | MAdCAM antibody Clone ID 24 of Table 7 (IgG) (antibody, V domains shown) VH: EVQLVESGGGLVKPGGSLRLSCAASGFTFSSYWMSWVRQAPGKGLEWVSRISSDGRITTYAAPVKGRFTISRDDSKNTLYLQMNSLKTEDTAVYYCARGTSYCTGGVCDIDYWGQGTLVTVSS VL: DIQMTQSPSSLSASVGDRVTITCRASQSIGRNLNWYQQKPGKAPKLLIYSASNLQSGVPSRFSGSGSGTDFTLTISSLQPEDFATYYCQQSYSIPLTFGPGTKVDIK
binds | – | binds | MAdCAM antibody Clone ID 59 of Table 6 (scFv) (scFv) scFv: EVQLLESGGGLVQPGGSLRLSCAASGFTFSDFWMHWVRQAPGKGLEWISYISGDSGYTNYADSVKGRFTISRDNSKNTLYLQMNSLRAEDTAVYYCARDRPYYYYMDVWGKGTTVTVSSGGGGSGGGGSGGGGSGGGGSDIQMTQSPSSLSASVGDRVTITCRASQSVSRSLAWYQQKPGKAPKLLIYAASSLQSGVPSRFSGSGSGTDFTLTISSLQPEDFATYYCQQYKSYPVTFGQGTKVEIK
no binding | – | – | MAdCAM antibody Clone ID 7 of Table 7 (IgG) (antibody, V domains shown) VH: EVQLLESGGGLVQPGGSLRLSCAASGFTFSDYQMSWVRQAPGKGLEWVAIISHADGGFKDYADSVKGRFTISRDNSKNTLYLQMNSLRAEDTAVYYCAKPYSSGWSAVYYFDYWGQGTLVTVSS VL: DIQMTQSPSSLSASVGDRVTITCRASRGITNDLGWYQQKPGKAPKLLIYAASTLQSGVPSRFSGSGSGTDFTLTISSLQPEDFATYYCQQAYSFPWTFGQGTKVEIK
no binding | – | – | MAdCAM antibody Clone ID 14 of Table 7 (IgG) (antibody, V domains shown) VH: QVQLVQSGAEVKKPGSSVKVSCKASGYTFTNYYMHWVRQAPGQGLEWMGGIIPIVDGVKYAQKFQGRVTITADESTSTAYMELSSLRSEDTAVYYCAKGQFTGNYYYGMDYWGQGTLVTVSS VL: DIQMTQSPSSLSASVGDRVTITCQANQDISNYLNWYQQKPGKAPKLLIYRASKLEAGVPSRFSGSGSGTDFTLTISSLQPEDFATYYCQQSSEIPYSFGQGTKVEIK
binds | – | – | MAdCAM antibody Clone ID 2 of Table 6 (scFv) (scFv) scFv: QVQLVQSGAEVKKPGASVKVSCKASGYPFIGYYLHWVRQAPGQGLEWMGIINPSGGSTSYAQKFQGRVTMTRDTSTSTVYMELSSLRSEDTAVYYCAREGRLSYGMDAWGQGTLVTVSSGGGGSGGGGSGGGGSGGGGSDIQMTQSPSSLSASVGDRVTITCRASQSISSYLAWYQQKPGKAPKLLIYGASTLESGVPSRFSGSGSGTDFTLTISSLQPEDFATYYCQQTWGPPFTFGQGTKLEIK
binds | – | binds | MAdCAM antibody Clone ID 63 of Table 6 (scFv) (scFv) scFv: EVQLLESGGGLVKPGGSLRLSCAASGFTFDDYAMHWVRQAPGKGLEWVASITSSSAFIDYAASVKGRFTISRDDSKNTLYLQMNSLKTEDTAVYYCARERVDWNSYFDLWGRGTLVTVSSGGGGSGGGGSGGGGSGGGGSEIVMTQSPATLSVSPGERATLSCRASQGISNSYLAWYQQKPGQAPRLLIYGASTRATGIPARFSGSGSGTEFTLTISSLQSEDFAVYYCQQYYTYPPTFGPGTKVDIK

Results are given in words; binding and its absence hold for the method and conditions named. A result given as binding can be weak or reduced; the word gives no strength.
